The source of these data is patent US20210292814.

The exact form of at least one protein or probe is not confirmed.

This series concerns lactoferrin. Nature of the series: SELEX. The settings on record: microarray chip selection, 7 rounds, purified native protein, protein details: spotted on glass microarray for selection, single-stranded DNA.

For the sequence “AGGCAGGACACCGTAACTGAACGGTCTTGGCTACTGCACATTTTTCCTGCCT [SEQ ID NO 29]”, the selection result is listed as “selected”.

For “GCAGGACACCGTAACACTCTCAACCATGACGGTGCAATATTGGCGCTAGCTCTTCCTGC [SEQ ID NO 13]”, the selection result was “selected”.

In the case of “GCAGGACACCGTAACACGGGCTGATGCTCTCTTTATTTTACCTAAATAAAGTGTCCTGC [SEQ ID NO 17]”, the selection result is “selected”.

Take “TGACAGGCAGGACACCGTAACCGGGCGGAGCTCTTATTACATCAACTCGCTGTAATATGGCCTGCTACCTCCCTCCTCTTCA [SEQ ID NO 50]”: the selection result is recorded as “selected”.

Take “TGACAGGCAGGACACCGTAACGCGGGCGAAGCTCTTAATACCTCTCTATTATGTCCTGTTCCTGCTACCTCCCTCCCCTTCA [SEQ ID NO 60]”: the selection result is reported as “selected”.

On to “GCAGGACACCGTAACGGGCGAACGCTCTTTATTTTGGAACCCACAAAATAATGTTCTGC [SEQ ID NO 23]”, for which the selection result is on record as “selected”.

With “GCAGGACACCGTAACACGGGCTCTGCTTTTCCAATAATGACAAGTATTGGATGGCCTGC [SEQ ID NO 12]”, the selection result is recorded as “selected”.

Regarding “GCAGGACACCGTAACCCTAACACGTACGGGGCATTTATGGCATAGCTCTTCCTCCCTGC [SEQ ID NO 5]”, the selection result (PBS, room temperature) is on record as “selected”.

On to “AGGCAGGACACCGTAACCGGTGCATCTATGGCTACTAGCTCTTCCTGCCT [SEQ ID NO 22]”, for which the selection result (shares conserved SEQ 67) is recorded as “selected”.

“TGACAGGCAGGACACCGTAACTACCTCTTCCATATCGGTGCAACATTTGGCTTAGCTCTTCCTGCTACCTCCCTCCTCTTCA [SEQ ID NO 56]”: the selection result is on record as “selected”.

In the case of “GCAGGACACCGTAACACTGCTTTATCCCCGTCGGCTTGTCTCTTCGACAGTGTGGCTGC [SEQ ID NO 33]”, the selection result is “selected”.

For “TGACAGGCAGGACACCGTAACGGGCTCTGCTCTAAATTTCGCCCTTGCACGAAATTTTGTCCTGCTACCTCCCCCCTCTTCA [SEQ ID NO 62]”, the selection result is on record as “selected”.

Turning to “TGACAGGCAGGACACCGTAACGGGCAATCTTGCTCTTATTTTCACACCTGATAAATATGTCCTGCTACCTCCCTCCTCTTCA [SEQ ID NO 51]”, the selection result was “selected”.

Take “AGGCAGGACACCGTAACGGTGCGTGTACACGGCTCTGCTTTTCCTGCCT [SEQ ID NO 43]”: the selection result is given as “selected”.

As for “GCAGGACACCGTAACGGGCTTATGCTCTTAAAAATCCTGAGCGACTTTTTATGTACTGC [SEQ ID NO 9]”, the selection result is listed as “selected”.

“GCAGGACACCGTAACACTGCTTTATCCCCGTCGGCTTGGCTCTTCGACAGTGTTGCTGC [SEQ ID NO 32]”: the selection result is on record as “selected”.

For the sequence “TGACAGGCAGGACACCGTAACGGGCGAATGCTCTCTTTGTTTTATATATAACAAAGTGTCTCTGCTACCTCCCTCCTCTTCA [SEQ ID NO 61]”, the selection result is recorded as “selected”.

With “GGCAGGACACCGTAACCCCTAGTTCCTGGTGCATCTATGGCAAAGCTCTTCCTGCC [SEQ ID NO 38]”, the selection result is recorded as “selected”.

As to “TGACAGGCAGGACACCGTAACGTAACTACGGACGGCATCTATGGCTATGCTCTTGTCCCTGCTGCTACCTCCCTCCTCTTCA [SEQ ID NO 55]”, the selection result is “selected”.

Consider “TGACAGGCAGGACACCGTAACGGGCTTAGCTCTAAATCAAATCCTCCTTATTGATTTTGTCCTGCTACCTCCCTCCTCTTCA [SEQ ID NO 52]”, for which the selection result was “selected”.

For the sequence “AGGCAGGACACCGTAACACCGGTGCGTCCCACGGCTCCAGCTCTTCCTGCCT [SEQ ID NO 16]”, the selection result is “selected”.

Regarding “AGCAGACGGGAGACTTTTAGAGTTGTAACTTGAGTCTGCT [SEQ ID NO 34]”, the selection result is on record as “selected”.

With “TGACAGGCAGGACACCGTAACTTCTGATAATCGGTGCATCTATGGCGTAGCTCTTCCTCACCTGCTACCTCCCTCCTCTTCA [SEQ ID NO 57]”, the selection result is reported as “selected”.

As for “GCAGGACACCGTAACGTTCGTAACAACACGGCATCTATGGCTTTAGCTCTTGTACCTGC [SEQ ID NO 15]”, the selection result is recorded as “selected”.
